Results published in PubChem BioAssay AID1487 (National Center for Advancing Translational Sciences (NCATS), 2009).
Some of the results follow. The main result of the screen is listed elsewhere. These columns were measured beside it and carry no call. Compounds called inactive in the main read-out are mostly missing here. Potencies come from curve fits of mixed quality, noted in brackets.

Assay: qHTS Assay for Modulators of Lamin A Splicing
Details: HeLa LMNA splicing GFP/RFP minigene ratio, 48 h
In short: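 S3 HeLa cells stably expressing lamin A-EGFP splicing minigene plus DsRed2, 600 cells/well, 48 h compound exposure at 37C. Laser-scanning cytometry; analysed as GFP (500-530 nm)/RFP (575-640 nm) total intensity ratio; 0.5% DMSO vehicle.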

[1] = measured here: GFP splicing reporter channel
[2] = measured here: RFP viability control channel

Compound | AC50 [1] | AC50 [2]
O=C(Cn1cnc2c(oc3ccccc32)c1=O)Nc1ccc(OC(F)(F)F)cc1 | 0.355 µM [rising, full curve] | 1 µM [rising, full curve]
Cc1[nH]n(-c2ccccc2)c(=O)c1/C=N/NC(=O)c1ccoc1C | 6.31 µM [rising, full curve, poor fit] | 7.08 µM [rising, full curve, poor fit]
COc1ccccc1CNC(=O)Cc1csc2nc(-c3ccccc3)cn12 | 6.31 µM [falling, single point] | 
CCc1ccc(C(=O)NC(=S)Nc2ccc3c(c2)OCCO3)cc1 |  | 35.5 µM [rising, single point]
O=C(COC(=O)c1cc([N+](=O)[O-])ccc1NCCO)c1ccc(Cl)cc1 |  | 22.4 µM [rising, single point]
COc1ccc(OC)c(NC(=O)[C@@H]2CCCN2C(=O)c2cccs2)c1 |  | 5.62 µM [rising, single point]
O=C(CCC1N=C2c3ccccc3N=C(SCc3ccccc3F)N2C1=O)NCCc1ccccc1 (stereo unspecified) |  | 6.31 µM [falling, single point]
CN(c1ccccc1)S(=O)(=O)c1cccc(NC(=O)CSc2nnc(N)s2)c1 |  | 12.6 µM [rising, partial curve]
O=C(O)c1cn(-c2ccc(F)cc2)c(=O)c2ccccc12 | 0.178 µM [falling, full curve, poor fit] | 
COc1cccc(-c2ccc3ncnc(NCc4cnc(C)cn4)c3c2)c1 | 8.91 µM [falling, partial curve] | 7.08 µM [falling, partial curve]
CC1CCC(C(C)C)C(OC(=O)Cn2c(-c3ccc(Br)cc3)[n+](C)c3ccccc32)C1 (stereo unspecified) | 25.1 µM [falling, partial curve, poor fit] | 35.5 µM [falling, single point]
Cc1oc(CC(C)C)cc1C(=O)Nc1cccc2ccccc12 | 35.5 µM [falling, single point] | 35.5 µM [falling, single point]
CCCCNC(=O)C1CC(c2c(Cl)cccc2Cl)=NO1 (stereo unspecified) |  | 17.8 µM [rising, single point]
COc1ccc(C)cc1NC(=O)CSc1nnc(COc2ccccc2)n1Cc1ccco1 | 20 µM [rising, single point] | 22.4 µM [rising, single point]
COc1ccccc1-c1nc(SCc2ccccn2)n[nH]1 |  | 35.5 µM [rising, single point]
COCc1c(C(=O)OCC(=O)c2c(N)n(CC(C)C)c(=O)n(C)c2=O)oc2ccccc12 |  | 4.47 µM [rising, partial curve]
O=C(CSc1nc2ccccc2c(=O)n1Cc1ccco1)c1ccc(F)cc1 |  | 12.6 µM [rising, partial curve]
Cc1ccc(NC(=O)c2ocnc2C)cc1Cl |  | 0.282 µM [falling, full curve, poor fit]

Compound | AC50 [1] | AC50 [2]
Clc1ccc(CN(Cc2ccc(Cl)cc2)c2nn[nH]n2)cc1 | 0.00355 µM [falling, full curve, poor fit] | 0.01 µM [rising, full curve, poor fit]
CCOc1cc(CNCCc2ccc(S(N)(=O)=O)cc2)cc(Cl)c1OCc1ccccc1 | 10 µM [falling, single point] | 
Fc1ccc(Nc2ncnc3ccc(-c4ccoc4)cc23)cc1 | 20 µM [falling, partial curve] | 17.8 µM [falling, partial curve]
O=C(NCCNc1ccc([N+](=O)[O-])cc1C(F)(F)F)c1ccccc1 |  | 31.6 µM [rising, single point]
Nc1c2c(nc3ccccc13)N(c1ccccc1)CC2 |  | 35.5 µM [rising, single point]
O=c1oc2cc(O)ccc2c2oc3cc(O)ccc3c12 |  | 14.1 µM [rising, single point]
Cc1cc(S(=O)(=O)N2CCN(c3c(C)cccc3C)CC2)ccc1F |  | 20 µM [rising, single point]
CCOc1cccc2cc(-c3cn4cc(C)ccc4n3)c(=O)oc12 |  | 2.82 µM [falling, full curve]
C=CCN1C(c2cccc(C(F)(F)F)c2)=CS/C1=C(/C#N)c1nnc(N2CCOCC2)n1-c1ccccc1 | 31.6 µM [rising, single point] | 31.6 µM [rising, single point]
CN1C(=O)/C(=C/C=C2\SCCN2C)N(C)C1=S | 0.224 µM [rising, partial curve, poor fit] | 20 µM [rising, single point]
C=C(C)C1CC=C(C)/C(=N/NC(=O)c2cccc([N+](=O)[O-])c2)C1 (stereo unspecified) | 35.5 µM [rising, single point] | 35.5 µM [rising, single point]
CCN(CC)C(=O)CSc1nc2c(sc(=S)n2-c2ccccc2)c(=O)n1Cc1ccco1 |  | 35.5 µM [rising, single point]
O=C(Nc1cccc(Cl)c1)c1ccc2nc(CCc3ccccc3)oc2c1 | 1.12 µM [falling, full curve, poor fit] | 
O=C(NCc1ccc(Cl)cc1)c1ccc(COCC(F)(F)F)o1 | 35.5 µM [rising, single point] | 35.5 µM [rising, single point]
CCCn1c2ccccc2c2cnn(CC(=O)NCc3ccccc3Cl)c(=O)c21 | 0.0224 µM [falling, full curve] | 0.1 µM [falling, full curve]
Cc1ccccc1-c1cc(NCc2ccccc2)ncn1 | 14.1 µM [falling, partial curve] | 
Cc1n[nH]c(C)c1C(=O)CC1(O)C(=O)N(CCc2ccccc2)c2ccc(Cl)cc21 (stereo unspecified) | 11.2 µM [rising, partial curve] | 10 µM [rising, partial curve]
Cc1nn(CC(=O)OCC(=O)NC(C)c2ccccc2)c(C)c1[N+](=O)[O-] (stereo unspecified) | 3.55 µM [falling, partial curve] | 3.98 µM [falling, single point]

Full records from above:
O=C(NCCNc1ccc([N+](=O)[O-])cc1C(F)(F)F)c1ccccc1 as listed: AC50 [2]: 31.6 µM [rising, single point]
CCN(CC)C(=O)CSc1nc2c(sc(=S)n2-c2ccccc2)c(=O)n1Cc1ccco1 as listed: AC50 [2]: 35.5 µM [rising, single point]
